Results from PMC6747193.
No constants are given. Whether binding was seen depends on the method and setting.

Amino acid sequences for entries named in this document (tags omitted). Residues count along the entry.
UniProt P0DQD2, residues 36-321: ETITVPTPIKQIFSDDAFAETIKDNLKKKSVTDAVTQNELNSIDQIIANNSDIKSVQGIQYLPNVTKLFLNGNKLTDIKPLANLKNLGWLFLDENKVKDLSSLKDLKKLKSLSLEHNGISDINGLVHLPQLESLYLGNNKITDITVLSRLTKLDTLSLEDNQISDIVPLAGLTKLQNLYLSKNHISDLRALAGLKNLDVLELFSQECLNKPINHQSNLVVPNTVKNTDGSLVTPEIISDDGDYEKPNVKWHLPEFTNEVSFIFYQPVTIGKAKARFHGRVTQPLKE

Target: InlB internalin domain isoform idInlB13 (lineage II, from L. monocytogenes type strain EGDe) (Listeria monocytogenes) (UniProt P0DQD2)
Test: SEC; Superdex 200 10/300 GL, PBS buffer, flow rate 0.4 mL/min, elution monitored by fluorescence emission at 340 nm (excitation 280 nm); both purified

InlB internalin domain isoform idInlB13 (lineage II, from L. monocytogenes type strain EGDe) (from UniProt P0DQD2 36-321) (domain or fragment)
binding: no binding
